Drawing on the supplement of paper PMC10849652, this text covers log2 fold change for 39 targets.

Sequences of proteins named here, by UniProt entry; tags and fusion partners are left off. A change or cut given only in a name is not applied to a line headed by its entry.
UniProt Q13488, whole entry, looked up: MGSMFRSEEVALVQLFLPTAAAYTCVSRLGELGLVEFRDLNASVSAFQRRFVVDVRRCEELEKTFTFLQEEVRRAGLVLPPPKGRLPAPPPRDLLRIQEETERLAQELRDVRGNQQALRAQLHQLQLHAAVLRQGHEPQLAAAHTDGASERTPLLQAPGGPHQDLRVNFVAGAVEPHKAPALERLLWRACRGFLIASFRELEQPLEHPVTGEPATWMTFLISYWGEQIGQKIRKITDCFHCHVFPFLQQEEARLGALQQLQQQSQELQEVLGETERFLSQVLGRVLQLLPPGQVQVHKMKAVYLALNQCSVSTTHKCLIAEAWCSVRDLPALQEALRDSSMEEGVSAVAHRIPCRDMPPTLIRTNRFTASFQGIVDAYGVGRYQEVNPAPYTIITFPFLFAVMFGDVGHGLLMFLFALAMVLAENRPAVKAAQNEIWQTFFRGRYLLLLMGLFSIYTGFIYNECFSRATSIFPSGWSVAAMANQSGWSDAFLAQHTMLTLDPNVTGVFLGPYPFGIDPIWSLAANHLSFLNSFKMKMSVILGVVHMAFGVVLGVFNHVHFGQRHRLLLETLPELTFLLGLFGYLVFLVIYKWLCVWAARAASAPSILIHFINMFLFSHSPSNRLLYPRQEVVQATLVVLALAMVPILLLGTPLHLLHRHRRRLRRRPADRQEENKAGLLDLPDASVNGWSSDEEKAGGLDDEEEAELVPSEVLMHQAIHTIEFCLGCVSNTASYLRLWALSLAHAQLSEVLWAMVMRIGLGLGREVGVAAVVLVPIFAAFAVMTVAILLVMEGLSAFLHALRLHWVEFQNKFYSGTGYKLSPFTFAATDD
UniProt P15923: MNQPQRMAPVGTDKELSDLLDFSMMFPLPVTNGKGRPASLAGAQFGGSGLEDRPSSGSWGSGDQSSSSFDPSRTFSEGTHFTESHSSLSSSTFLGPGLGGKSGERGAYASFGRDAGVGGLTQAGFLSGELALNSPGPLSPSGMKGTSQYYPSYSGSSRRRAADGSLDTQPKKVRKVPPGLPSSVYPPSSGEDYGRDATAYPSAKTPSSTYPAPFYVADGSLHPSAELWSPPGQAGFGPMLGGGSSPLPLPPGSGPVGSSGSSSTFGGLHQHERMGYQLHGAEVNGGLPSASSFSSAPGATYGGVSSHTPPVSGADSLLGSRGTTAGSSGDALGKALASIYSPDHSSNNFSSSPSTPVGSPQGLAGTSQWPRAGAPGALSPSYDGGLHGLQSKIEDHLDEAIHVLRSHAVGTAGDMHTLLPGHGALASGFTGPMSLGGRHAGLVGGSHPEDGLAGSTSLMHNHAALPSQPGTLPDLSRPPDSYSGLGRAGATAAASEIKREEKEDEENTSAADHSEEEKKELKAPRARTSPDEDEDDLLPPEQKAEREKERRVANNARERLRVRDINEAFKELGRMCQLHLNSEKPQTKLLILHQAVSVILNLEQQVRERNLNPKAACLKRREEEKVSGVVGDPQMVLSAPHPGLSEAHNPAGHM
UniProt Q8NI27: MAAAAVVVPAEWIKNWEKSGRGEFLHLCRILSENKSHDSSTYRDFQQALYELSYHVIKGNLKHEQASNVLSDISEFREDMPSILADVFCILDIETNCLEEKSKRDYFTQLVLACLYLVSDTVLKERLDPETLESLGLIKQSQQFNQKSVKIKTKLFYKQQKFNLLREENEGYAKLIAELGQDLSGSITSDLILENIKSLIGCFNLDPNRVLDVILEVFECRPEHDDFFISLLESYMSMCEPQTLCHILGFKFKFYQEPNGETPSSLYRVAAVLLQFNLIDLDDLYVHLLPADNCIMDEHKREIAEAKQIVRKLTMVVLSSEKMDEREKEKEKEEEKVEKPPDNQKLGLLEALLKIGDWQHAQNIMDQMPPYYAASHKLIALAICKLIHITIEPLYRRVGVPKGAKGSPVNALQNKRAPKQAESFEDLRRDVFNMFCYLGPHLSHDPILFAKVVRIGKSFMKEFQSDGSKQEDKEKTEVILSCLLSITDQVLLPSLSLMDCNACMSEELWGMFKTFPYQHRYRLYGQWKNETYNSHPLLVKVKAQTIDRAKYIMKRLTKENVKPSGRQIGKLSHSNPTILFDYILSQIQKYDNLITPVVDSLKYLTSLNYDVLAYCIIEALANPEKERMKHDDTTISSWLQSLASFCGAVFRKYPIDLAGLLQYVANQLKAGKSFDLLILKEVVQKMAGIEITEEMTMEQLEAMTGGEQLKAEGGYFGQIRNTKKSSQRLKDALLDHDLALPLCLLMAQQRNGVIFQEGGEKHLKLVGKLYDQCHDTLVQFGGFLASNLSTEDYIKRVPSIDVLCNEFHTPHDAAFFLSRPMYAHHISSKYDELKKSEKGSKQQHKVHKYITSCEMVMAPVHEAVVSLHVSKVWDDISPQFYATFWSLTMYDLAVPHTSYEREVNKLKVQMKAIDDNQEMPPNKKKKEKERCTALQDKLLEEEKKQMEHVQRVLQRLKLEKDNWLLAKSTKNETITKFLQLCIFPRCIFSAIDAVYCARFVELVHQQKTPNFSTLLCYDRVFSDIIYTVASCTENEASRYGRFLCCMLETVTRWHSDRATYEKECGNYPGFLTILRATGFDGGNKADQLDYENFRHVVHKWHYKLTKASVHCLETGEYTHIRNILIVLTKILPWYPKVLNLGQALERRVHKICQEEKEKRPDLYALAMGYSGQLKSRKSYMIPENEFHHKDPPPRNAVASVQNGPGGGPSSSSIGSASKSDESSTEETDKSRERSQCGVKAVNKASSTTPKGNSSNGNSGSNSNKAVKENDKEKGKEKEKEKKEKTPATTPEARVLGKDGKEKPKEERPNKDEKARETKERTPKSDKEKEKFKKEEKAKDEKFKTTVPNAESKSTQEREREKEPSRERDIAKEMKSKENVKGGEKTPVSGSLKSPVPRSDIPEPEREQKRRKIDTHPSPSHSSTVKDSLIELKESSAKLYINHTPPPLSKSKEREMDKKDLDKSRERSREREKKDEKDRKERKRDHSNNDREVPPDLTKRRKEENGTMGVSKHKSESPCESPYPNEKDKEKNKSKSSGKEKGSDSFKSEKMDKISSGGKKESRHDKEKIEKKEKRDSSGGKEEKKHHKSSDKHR
UniProt Q15813: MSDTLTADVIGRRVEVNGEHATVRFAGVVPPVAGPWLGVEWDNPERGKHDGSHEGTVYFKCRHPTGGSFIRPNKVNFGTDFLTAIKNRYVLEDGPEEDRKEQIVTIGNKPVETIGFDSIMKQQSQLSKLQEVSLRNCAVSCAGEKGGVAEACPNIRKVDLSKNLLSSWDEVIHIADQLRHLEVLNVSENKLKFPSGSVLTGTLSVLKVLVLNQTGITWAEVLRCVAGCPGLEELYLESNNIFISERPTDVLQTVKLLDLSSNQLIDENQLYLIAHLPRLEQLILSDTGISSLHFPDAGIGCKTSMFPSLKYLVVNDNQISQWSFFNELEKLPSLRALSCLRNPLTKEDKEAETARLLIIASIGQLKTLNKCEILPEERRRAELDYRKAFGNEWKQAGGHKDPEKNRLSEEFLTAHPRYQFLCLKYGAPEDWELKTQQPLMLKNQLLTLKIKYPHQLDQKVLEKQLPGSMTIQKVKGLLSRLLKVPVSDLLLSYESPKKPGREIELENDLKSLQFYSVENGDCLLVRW
UniProt Q8NFU7: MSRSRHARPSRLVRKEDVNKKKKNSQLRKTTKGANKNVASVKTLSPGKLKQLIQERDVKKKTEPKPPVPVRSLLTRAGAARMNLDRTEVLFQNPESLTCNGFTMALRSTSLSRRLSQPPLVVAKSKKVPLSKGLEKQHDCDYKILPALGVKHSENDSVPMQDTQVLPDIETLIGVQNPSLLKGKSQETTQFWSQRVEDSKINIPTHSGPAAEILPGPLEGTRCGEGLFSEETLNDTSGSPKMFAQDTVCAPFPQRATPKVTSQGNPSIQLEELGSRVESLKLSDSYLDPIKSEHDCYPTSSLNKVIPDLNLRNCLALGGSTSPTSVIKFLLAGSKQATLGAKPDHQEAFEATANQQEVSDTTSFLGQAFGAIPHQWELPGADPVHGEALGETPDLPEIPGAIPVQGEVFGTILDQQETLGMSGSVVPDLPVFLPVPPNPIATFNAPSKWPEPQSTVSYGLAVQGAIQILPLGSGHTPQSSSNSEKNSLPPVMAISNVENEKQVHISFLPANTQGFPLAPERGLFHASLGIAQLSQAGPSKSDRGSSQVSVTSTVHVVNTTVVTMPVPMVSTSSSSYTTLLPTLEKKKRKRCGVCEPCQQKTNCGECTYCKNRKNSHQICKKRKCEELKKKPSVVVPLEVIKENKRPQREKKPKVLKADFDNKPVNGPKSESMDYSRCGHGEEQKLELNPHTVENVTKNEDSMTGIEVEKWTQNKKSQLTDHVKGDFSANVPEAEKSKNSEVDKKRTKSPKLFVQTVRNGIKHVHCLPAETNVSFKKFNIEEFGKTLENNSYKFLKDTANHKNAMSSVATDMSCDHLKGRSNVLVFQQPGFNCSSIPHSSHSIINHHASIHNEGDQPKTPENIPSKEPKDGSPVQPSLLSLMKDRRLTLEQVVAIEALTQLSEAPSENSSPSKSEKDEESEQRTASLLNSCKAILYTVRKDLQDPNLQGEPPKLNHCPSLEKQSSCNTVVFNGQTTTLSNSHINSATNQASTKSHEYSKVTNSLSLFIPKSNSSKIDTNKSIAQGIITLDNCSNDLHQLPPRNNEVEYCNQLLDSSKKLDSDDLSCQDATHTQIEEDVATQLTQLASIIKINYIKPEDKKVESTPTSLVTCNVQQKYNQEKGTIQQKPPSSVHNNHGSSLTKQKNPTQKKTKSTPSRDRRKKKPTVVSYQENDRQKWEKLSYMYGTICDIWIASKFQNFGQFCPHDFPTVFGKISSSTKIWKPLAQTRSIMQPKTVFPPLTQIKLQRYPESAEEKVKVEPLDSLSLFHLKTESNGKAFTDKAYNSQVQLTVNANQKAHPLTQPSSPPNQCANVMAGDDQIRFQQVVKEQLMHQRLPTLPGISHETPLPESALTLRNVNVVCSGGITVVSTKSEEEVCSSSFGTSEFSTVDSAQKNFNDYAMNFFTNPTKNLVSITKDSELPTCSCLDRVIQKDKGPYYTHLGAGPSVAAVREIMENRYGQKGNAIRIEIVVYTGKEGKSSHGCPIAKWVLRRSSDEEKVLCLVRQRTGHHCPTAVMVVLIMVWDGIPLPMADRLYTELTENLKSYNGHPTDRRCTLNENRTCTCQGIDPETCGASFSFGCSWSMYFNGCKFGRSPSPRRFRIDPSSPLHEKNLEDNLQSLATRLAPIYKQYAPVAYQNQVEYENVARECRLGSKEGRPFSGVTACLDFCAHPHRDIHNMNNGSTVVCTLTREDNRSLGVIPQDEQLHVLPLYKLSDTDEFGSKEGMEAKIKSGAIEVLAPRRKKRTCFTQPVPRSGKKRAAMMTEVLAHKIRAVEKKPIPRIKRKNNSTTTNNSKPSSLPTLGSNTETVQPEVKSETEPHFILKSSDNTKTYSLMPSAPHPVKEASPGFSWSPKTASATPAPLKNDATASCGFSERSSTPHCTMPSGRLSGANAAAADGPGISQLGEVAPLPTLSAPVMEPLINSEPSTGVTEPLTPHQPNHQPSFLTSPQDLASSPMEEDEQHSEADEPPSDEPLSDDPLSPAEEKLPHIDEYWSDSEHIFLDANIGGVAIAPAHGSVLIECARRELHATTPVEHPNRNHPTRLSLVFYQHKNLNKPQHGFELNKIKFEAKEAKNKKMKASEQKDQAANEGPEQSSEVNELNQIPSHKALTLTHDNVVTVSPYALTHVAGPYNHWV
UniProt Q8WVM0: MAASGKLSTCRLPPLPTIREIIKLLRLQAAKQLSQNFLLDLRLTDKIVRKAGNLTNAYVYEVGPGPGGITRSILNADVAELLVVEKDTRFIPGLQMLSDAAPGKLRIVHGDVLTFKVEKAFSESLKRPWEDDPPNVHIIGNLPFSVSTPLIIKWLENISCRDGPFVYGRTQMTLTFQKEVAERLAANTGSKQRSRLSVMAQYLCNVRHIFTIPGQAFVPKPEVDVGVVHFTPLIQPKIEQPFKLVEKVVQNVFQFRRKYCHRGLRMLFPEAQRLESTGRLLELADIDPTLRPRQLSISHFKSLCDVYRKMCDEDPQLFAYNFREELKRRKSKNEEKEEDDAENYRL
UniProt Q9BZK7: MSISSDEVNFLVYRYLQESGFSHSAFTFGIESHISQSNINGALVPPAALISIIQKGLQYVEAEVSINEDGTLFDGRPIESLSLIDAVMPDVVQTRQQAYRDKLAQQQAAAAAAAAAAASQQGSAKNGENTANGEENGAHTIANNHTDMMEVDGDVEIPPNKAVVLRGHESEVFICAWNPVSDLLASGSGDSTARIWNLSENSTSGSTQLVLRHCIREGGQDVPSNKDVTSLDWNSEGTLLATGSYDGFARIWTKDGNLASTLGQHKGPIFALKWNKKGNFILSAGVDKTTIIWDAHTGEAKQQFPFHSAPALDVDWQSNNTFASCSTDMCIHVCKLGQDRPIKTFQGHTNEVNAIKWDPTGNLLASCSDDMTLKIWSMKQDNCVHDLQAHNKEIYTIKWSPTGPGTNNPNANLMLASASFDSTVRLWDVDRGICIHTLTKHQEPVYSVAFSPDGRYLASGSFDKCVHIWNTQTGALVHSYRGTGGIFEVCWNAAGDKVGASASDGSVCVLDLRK

The other results are listed elsewhere or left out.

Compound in one test: C#Cc1cccc(Nc2ncnc3cc(OCCOC)c(OCCOC)cc23)c1 [erlotinib]
Briefly: log2 fold change, soluble protein after heating vs DMSO (PISA); higher = thermal stabilisation; K562 cells, 10 uM, 30 min; active = over 0.2 and 3.5 SD of the protein, either way, in both replicates (recomputed). The method in brief: (§1)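 Quantification of soluble protein used TMTpro 16plex LC-MS/MS, with channel sums equalised. Samples were the supernatant after 21,000xg for 90 min of pooled aliquots from K562 cells (2×10^6 cells/mL) treated with 10 μM compound for 30 min, heated for 3 min over 48°C-58°C, and extracted in PBS with 0.5% NP-40 at 4°C. Values, from duplicates, describe thermal stability against control samples on a log2 fold-change scale.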
In the case of TJAP1 (UniProt Q5JTD0), the log2 fold change was inactive: -0.028.

As to TCEA1 (UniProt P23193), the log2 fold change is inactive: -0.034.

Take TIMM50 isoform 2 (UniProt Q3ZCQ8): the log2 fold change was inactive: 0.016.

For THUMPD1 (UniProt Q9NXG2), the log2 fold change is inactive: 0.014.

With THBS1 (UniProt P07996), the log2 fold change is inactive: -0.146.

With TCIRG1 (UniProt Q13488), the log2 fold change is inactive: 0.176.

For TCF3 (UniProt P15923), the log2 fold change is inactive: 0.018.

Take THOC1 (UniProt Q96FV9): the log2 fold change was inactive: 0.262.

As to THOC2 (UniProt Q8NI27), the log2 fold change was inactive: -0.019.

As to THNSL1 (UniProt Q8IYQ7), the log2 fold change was inactive: 0.051.

As for TBC1D22B (UniProt Q9NU19), the log2 fold change was inactive: 0.08.

Take TLCD4 (UniProt Q96MV1): the log2 fold change is inactive: -0.043.

THOC7 (UniProt Q6I9Y2): the log2 fold change was inactive: 0.026.

Take TKFC (UniProt Q3LXA3): the log2 fold change was inactive: 0.014.

Turning to TGFBR3 (UniProt Q03167), the log2 fold change is inactive: -0.06.

For TKT isoform 2 (UniProt P29401), the log2 fold change is inactive: 0.01.

Consider TDRKH (UniProt Q9Y2W6), for which the log2 fold change is inactive: 0.019.

In the case of TGOLN2 isoform 7 (UniProt O43493), the log2 fold change is inactive: -0.022.

Consider TBCC (UniProt Q15814), for which the log2 fold change is inactive: 0.015.

Turning to TF (UniProt P02787), the log2 fold change is inactive: -0.138.

As to TDP2 isoform 2 (UniProt O95551), the log2 fold change is inactive: 0.

As to TERF2 (UniProt Q15554), the log2 fold change is inactive: -0.017.

On to THOC6 (UniProt Q86W42), for which the log2 fold change was inactive: -0.002.

For TBCB (UniProt Q99426), the log2 fold change is inactive: 0.027.

As for TIMMDC1 (UniProt Q9NPL8), the log2 fold change was inactive: -0.021.

As for TBCE (UniProt Q15813), the log2 fold change was inactive: 0.105.

With TK2 isoform 6 (UniProt O00142), the log2 fold change is inactive: 0.006.

Take TIMM23 (UniProt O14925): the log2 fold change was inactive: 0.002.

As to TET1 (UniProt Q8NFU7), the log2 fold change is inactive: 0.357.

Regarding TCP1 (UniProt P17987), the log2 fold change is inactive: -0.018.

Regarding TBL1X (UniProt O60907), the log2 fold change is inactive: -0.047.

Take TFB1M (UniProt Q8WVM0): the log2 fold change is inactive: -0.057.

Turning to TBL3 (UniProt Q12788), the log2 fold change is inactive: -0.055.

In the case of TIMM8B (UniProt Q9Y5J9), the log2 fold change is inactive: 0.

In the case of TBC1D4 (UniProt O60343), the log2 fold change is inactive: -0.021.

For the target TGM2 (UniProt P21980), the log2 fold change was inactive: 0.032.

With TBL1XR1 (UniProt Q9BZK7), the log2 fold change is inactive: -0.062.

TESC (UniProt Q96BS2): the log2 fold change is inactive: -0.029.

Take TCF12 isoform 3 (UniProt Q99081): the log2 fold change was inactive: 0.063.

Compound in another test: C/C(=N\NC(=O)C1=CC(=CC=C1)S(=O)(=O)N2CCOCC2)/C3=C(C=CC(=C3)Cl)O
The description is as above. The method in brief: as §1
As for TJAP1 (UniProt Q5JTD0), the log2 fold change is inactive: 0.002.

Take TCEA1 (UniProt P23193): the log2 fold change is inactive: -0.003.

With TIMM50 isoform 2 (UniProt Q3ZCQ8), the log2 fold change is inactive: 0.007.

With THUMPD1 (UniProt Q9NXG2), the log2 fold change is inactive: 0.02.

THBS1 (UniProt P07996): the log2 fold change was inactive: -0.101.

For TCIRG1 (UniProt Q13488), the log2 fold change is inactive: 0.173.

For the target TCF3 (UniProt P15923), the log2 fold change was inactive: 0.129.

As for THOC1 (UniProt Q96FV9), the log2 fold change was inactive: 0.055.

For the target THOC2 (UniProt Q8NI27), the log2 fold change is inactive: 0.016.

In the case of THNSL1 (UniProt Q8IYQ7), the log2 fold change is inactive: 0.088.

Regarding TBC1D22B (UniProt Q9NU19), the log2 fold change was inactive: 0.059.

For the target TLCD4 (UniProt Q96MV1), the log2 fold change was inactive: 0.018.

With THOC7 (UniProt Q6I9Y2), the log2 fold change is inactive: 0.059.

For the target TKFC (UniProt Q3LXA3), the log2 fold change was inactive: 0.009.

For TGFBR3 (UniProt Q03167), the log2 fold change is inactive: -0.008.

Turning to TKT isoform 2 (UniProt P29401), the log2 fold change is inactive: 0.004.

TDRKH (UniProt Q9Y2W6): the log2 fold change is inactive: 0.033.

TGOLN2 isoform 7 (UniProt O43493): the log2 fold change was inactive: -0.023.

With TBCC (UniProt Q15814), the log2 fold change is inactive: 0.051.

For TF (UniProt P02787), the log2 fold change is inactive: -0.168.

Regarding TDP2 isoform 2 (UniProt O95551), the log2 fold change is inactive: 0.116.

TERF2 (UniProt Q15554): the log2 fold change was inactive: -0.111.

As to THOC6 (UniProt Q86W42), the log2 fold change was inactive: -0.001.

For TBCB (UniProt Q99426), the log2 fold change is inactive: 0.092.

As for TIMMDC1 (UniProt Q9NPL8), the log2 fold change is inactive: -0.034.

For TBCE (UniProt Q15813), the log2 fold change is inactive: 0.108.

TK2 isoform 6 (UniProt O00142): the log2 fold change is inactive: 0.062.

With TIMM23 (UniProt O14925), the log2 fold change is inactive: -0.036.

Consider TET1 (UniProt Q8NFU7), for which the log2 fold change was inactive: -0.535.

Take TCP1 (UniProt P17987): the log2 fold change is inactive: 0.001.

For TBL1X (UniProt O60907), the log2 fold change is inactive: 0.076.

On to TFB1M (UniProt Q8WVM0), for which the log2 fold change is inactive: -0.079.

In the case of TBL3 (UniProt Q12788), the log2 fold change is inactive: -0.056.

For the target TIMM8B (UniProt Q9Y5J9), the log2 fold change is inactive: 0.

With TBC1D4 (UniProt O60343), the log2 fold change is inactive: 0.058.

On to TGM2 (UniProt P21980), for which the log2 fold change was inactive: 0.008.

For the target TBL1XR1 (UniProt Q9BZK7), the log2 fold change is inactive: 0.049.

Regarding TESC (UniProt Q96BS2), the log2 fold change is inactive: -0.015.

On to TCF12 isoform 3 (UniProt Q99081), for which the log2 fold change was inactive: 0.075.
